Consider 3 molecules from paper PMC6771040 (Cancers, 2019).

Read-outs that look alike come from different tables or passages of the source.

For one series, the system named is PCa lesions. Particulars: cited from earlier work.
A short description of series [1]: general procedure: Fmoc solid-phase peptide synthesis; Rink Amide 4-methylbenzhydrylamine resin (loading 0.53 mmol/g); PyBOP/DIEA. Particulars: whole synthesis.

With `OC[C@H]1O[C@@H](O)[C@H]([18F])[C@@H](O)[C@@H]1O` [FDG, ^18F-flourodeoxyglucose], in the series on PCa lesions (FDG-PET), the “sensitivity in detecting PCa lesions” value is listed as 37%.

For `C[N+](C)(C)CCO` [choline], in the series with PCa lesions (choline PET), the “sensitivity in detecting PCa lesions” value is given as 50%.

In series [1], Glu-Urea-Glu-Aoc-Lys(NOTA)-(PEG)6-RM26 displayed a crude mass of 10.6 mg and an isolated mass of 2.6 mg. Besides, the “final HPLC purity” value in series [1] (UV 220 nm, scale of the general procedure 100 µmolar scale of the general procedure (0.1 mmol)) stood at 95%. The isolated yield in series [1] (based on the initial loading of the resin, scale of the general procedure 100 µmolar scale of the general procedure (0.1 mmol)) was 10%.
